Source: article PMC4214795

Experiments:
[1] = biological target: T1, Ark1p (wild-type), LexA DNA binding domain fusion (S. pombe) (UniProt O59790); assay: two-hybrid; bait fused to LexA DNA binding domain (Plo1p or Ark1p), prey ESCRT proteins fused to GAL4 transcription activation domain; budding yeast with LEXA-galactosidase readout; three days on selective medium, X-gal overlay; qualitative
T1 sequence: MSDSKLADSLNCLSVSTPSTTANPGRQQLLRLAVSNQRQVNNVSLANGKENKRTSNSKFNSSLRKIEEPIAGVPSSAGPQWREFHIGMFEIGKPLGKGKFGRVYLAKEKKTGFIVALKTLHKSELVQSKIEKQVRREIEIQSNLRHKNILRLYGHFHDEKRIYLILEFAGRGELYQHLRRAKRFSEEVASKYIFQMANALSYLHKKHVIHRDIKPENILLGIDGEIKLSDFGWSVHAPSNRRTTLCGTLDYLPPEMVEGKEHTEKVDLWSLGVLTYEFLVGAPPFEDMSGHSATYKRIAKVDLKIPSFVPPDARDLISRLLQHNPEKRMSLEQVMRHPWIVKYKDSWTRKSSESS

[2] = biological target: T2, Plo1p (wild-type), LexA DNA binding domain fusion (S. pombe) (UniProt P50528); assay: as above
T2 sequence: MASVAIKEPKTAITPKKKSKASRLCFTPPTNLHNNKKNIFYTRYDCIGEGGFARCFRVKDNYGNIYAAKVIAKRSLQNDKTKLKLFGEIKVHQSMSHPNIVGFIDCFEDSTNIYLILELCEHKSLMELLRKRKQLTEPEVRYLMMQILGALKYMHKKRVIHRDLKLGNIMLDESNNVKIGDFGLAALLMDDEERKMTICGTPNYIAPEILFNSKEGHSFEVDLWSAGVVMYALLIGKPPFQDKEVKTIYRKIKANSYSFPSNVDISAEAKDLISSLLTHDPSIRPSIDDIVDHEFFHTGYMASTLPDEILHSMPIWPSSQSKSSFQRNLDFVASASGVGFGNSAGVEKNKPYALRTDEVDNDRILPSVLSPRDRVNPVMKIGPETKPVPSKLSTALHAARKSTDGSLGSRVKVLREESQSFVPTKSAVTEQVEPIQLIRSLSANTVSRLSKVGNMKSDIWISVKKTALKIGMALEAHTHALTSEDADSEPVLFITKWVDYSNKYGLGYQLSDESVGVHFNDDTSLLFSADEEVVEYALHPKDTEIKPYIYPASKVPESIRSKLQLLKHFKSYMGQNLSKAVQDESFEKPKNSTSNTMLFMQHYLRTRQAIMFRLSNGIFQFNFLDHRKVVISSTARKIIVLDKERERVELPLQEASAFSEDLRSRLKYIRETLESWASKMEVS

[3] = biological target: T3, Clp1aa.1-371, GAL4 DNA binding domain fusion (S. pombe) (UniProt Q9P7H1); assay: two-hybrid; bait Clp1p fused to GAL4 DNA binding domain, prey ESCRT proteins fused to GAL4 transcription activation domain; budding yeast with GAL4-galactosidase readout; X-gal overlay; interaction read from the lack of transcriptional readout of the auto-activating bait Clp1aa.1-371
T3 sequence: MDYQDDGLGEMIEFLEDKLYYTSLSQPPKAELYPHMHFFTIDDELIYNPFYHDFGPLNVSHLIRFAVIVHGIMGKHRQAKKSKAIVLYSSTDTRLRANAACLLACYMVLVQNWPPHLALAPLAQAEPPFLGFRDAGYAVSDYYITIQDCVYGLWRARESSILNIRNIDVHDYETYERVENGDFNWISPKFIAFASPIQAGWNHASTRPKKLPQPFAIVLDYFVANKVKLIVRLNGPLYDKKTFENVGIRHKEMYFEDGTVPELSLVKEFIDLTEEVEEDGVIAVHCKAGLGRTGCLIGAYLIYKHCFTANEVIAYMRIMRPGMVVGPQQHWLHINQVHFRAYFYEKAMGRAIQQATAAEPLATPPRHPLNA

[4] = biological target: Ark1.K147R (kinase-dead Ark1p), LexA DNA binding domain fusion (S. pombe) (UniProt O59790); assay: two-hybrid; bait fused to LexA DNA binding domain (Plo1p or Ark1p), prey ESCRT proteins fused to GAL4 transcription activation domain; budding yeast with LEXA-galactosidase readout; three days on selective medium, X-gal overlay; qualitative

binding [1]: no binding
binding [2]: binds
binding [3]: no binding
Molecule: Vps32p (ESCRT-III), GAL4 transcription activation domain fusion (S. pombe)

binding [4]: binds
B1: Vps20p (ESCRT-III), GAL4 transcription activation domain fusion (protein, UniProt O94318 1-226)
chain: MGVNSSKINDKDRSILSIKEQRDKLLRYSKRLEKIEQLEIDIARKCLRDSDKRGALRALKAKKLYSGLITQTYGQLGNIEQLLSTIEFTLIQKDVMFGLQEGTNLIRQLQADMPLERVGRICNDRDEAMSYVDEVNDMLQGRMSRDQEDEIQEELDSLIREQEDEKVKDLEKPGFTPSTGVDVLPSVPLKNAIPSLDESFPKAASVSNTSSAVVIDEELRKDPVLG

These are yes or no findings as the source states them, for the method shown. For some of these results: A result given as binding can be weak or reduced; the word gives no strength. Where a sequence is shown, tags or fusion partners need not be part of it. Each block holds one molecule with its values, some of them ahead of it.
